Results published in the supplement of paper PMC10849652.
The other results are listed elsewhere or left out. Residues, ends and D or L forms follow the SMILES beside them. *: point of attachment. Cbz = O=C(OCc1ccccc1)*

Chains of the proteins cited; added tags and fusions are not shown. Lines headed by an entry give the natural chain unless they say otherwise; changes in a name come on top.
UniProt Q9ULK4: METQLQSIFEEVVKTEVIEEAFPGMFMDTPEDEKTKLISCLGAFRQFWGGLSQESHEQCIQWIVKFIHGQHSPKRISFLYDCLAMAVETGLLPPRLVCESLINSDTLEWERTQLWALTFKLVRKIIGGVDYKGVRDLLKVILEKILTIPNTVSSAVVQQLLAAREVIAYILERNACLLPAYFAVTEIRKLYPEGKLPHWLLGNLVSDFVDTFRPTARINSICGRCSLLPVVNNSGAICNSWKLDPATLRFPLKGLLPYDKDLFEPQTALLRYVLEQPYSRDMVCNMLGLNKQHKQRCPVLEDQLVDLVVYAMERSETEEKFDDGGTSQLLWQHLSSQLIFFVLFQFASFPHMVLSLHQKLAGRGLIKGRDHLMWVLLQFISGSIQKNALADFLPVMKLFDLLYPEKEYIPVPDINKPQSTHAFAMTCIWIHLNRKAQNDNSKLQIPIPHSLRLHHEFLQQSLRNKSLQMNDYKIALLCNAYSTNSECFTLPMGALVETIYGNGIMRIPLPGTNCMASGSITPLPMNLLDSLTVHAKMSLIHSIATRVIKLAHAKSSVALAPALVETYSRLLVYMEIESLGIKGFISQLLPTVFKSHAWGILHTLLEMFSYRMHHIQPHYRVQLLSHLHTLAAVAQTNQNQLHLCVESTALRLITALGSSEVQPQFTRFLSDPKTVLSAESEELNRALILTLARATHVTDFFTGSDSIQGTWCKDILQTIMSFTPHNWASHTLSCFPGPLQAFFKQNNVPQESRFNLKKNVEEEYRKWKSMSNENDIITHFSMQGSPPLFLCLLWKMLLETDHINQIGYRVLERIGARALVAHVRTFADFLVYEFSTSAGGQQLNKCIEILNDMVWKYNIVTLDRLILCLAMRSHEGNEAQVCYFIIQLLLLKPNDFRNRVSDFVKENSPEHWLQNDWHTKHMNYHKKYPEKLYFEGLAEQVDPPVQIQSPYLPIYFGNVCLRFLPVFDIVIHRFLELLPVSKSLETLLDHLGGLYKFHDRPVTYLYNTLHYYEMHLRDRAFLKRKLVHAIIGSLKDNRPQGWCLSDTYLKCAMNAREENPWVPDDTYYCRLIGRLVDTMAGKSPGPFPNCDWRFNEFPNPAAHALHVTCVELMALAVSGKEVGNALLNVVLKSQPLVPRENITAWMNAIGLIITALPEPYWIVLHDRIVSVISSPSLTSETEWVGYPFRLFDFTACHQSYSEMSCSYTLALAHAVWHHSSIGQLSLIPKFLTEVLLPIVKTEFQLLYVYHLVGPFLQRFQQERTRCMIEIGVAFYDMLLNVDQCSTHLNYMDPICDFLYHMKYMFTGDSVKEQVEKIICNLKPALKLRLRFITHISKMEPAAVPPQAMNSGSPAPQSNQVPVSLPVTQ
UniProt Q9H8H3: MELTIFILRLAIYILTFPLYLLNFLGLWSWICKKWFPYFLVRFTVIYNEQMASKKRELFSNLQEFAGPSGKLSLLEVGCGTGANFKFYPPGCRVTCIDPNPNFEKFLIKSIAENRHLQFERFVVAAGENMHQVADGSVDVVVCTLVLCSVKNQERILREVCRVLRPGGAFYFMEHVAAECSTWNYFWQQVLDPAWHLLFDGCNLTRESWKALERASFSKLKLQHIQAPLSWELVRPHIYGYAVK
UniProt Q16626: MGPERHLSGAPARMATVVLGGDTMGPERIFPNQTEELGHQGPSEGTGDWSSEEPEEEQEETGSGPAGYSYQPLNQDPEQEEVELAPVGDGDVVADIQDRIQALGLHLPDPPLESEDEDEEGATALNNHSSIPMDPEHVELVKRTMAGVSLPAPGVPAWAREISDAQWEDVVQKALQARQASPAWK
UniProt Q96RQ3: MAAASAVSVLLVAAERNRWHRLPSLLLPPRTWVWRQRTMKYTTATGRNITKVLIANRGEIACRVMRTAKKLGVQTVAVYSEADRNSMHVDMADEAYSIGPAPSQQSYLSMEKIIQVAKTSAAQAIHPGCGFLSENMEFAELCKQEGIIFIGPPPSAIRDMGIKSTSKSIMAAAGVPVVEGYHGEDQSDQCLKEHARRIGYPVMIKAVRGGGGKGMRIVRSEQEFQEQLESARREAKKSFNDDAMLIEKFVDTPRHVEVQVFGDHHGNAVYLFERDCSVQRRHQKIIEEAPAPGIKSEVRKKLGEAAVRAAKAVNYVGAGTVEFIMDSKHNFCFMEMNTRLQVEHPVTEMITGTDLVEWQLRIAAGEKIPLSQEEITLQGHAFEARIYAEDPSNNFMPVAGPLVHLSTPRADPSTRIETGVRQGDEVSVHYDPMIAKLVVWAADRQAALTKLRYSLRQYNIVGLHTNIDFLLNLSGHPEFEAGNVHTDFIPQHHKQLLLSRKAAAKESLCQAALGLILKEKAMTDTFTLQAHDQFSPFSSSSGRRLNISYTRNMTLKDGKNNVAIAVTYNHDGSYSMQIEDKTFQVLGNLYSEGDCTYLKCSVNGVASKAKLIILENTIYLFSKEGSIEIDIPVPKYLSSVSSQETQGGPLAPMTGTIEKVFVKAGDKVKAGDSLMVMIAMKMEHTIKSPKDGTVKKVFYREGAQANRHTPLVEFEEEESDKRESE
UniProt Q8TCB7: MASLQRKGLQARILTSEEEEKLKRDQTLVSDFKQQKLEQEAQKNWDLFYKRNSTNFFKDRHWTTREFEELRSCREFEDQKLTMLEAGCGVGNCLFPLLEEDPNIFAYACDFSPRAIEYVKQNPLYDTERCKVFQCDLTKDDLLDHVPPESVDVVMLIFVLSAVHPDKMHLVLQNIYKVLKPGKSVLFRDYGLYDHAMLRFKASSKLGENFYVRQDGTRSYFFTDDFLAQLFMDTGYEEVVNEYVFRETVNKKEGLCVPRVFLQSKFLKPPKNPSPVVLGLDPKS
UniProt P21741: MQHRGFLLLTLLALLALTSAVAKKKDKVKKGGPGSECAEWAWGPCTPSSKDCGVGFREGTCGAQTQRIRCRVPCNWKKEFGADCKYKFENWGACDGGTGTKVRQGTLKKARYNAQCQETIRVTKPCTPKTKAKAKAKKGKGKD
UniProt Q6N075: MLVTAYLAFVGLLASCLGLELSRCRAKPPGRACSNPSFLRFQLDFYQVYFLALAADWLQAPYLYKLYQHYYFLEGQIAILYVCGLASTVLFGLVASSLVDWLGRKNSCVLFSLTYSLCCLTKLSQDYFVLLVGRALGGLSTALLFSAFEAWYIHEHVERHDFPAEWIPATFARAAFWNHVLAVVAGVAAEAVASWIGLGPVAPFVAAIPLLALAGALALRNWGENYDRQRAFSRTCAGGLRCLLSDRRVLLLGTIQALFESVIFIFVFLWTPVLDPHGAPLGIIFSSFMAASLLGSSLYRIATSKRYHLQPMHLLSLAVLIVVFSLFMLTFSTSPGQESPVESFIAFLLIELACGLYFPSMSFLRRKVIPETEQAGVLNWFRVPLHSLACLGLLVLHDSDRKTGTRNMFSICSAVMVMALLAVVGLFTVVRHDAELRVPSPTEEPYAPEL
UniProt Q9HCC0: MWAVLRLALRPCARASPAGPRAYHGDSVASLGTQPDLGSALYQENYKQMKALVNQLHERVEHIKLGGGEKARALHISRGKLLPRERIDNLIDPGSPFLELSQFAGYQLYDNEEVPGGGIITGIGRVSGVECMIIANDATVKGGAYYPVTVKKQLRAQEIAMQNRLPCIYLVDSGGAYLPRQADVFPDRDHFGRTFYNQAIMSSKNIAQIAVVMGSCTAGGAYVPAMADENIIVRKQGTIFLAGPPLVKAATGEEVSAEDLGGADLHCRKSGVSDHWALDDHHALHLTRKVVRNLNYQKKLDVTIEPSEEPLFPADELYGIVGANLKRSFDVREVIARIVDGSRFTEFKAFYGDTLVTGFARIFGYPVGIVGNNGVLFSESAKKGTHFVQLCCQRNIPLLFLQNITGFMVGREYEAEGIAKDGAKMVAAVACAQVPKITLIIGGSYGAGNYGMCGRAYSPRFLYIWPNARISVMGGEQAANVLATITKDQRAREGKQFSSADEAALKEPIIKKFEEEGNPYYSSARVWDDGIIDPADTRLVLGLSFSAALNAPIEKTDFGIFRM
UniProt Q15648, whole entry, looked up: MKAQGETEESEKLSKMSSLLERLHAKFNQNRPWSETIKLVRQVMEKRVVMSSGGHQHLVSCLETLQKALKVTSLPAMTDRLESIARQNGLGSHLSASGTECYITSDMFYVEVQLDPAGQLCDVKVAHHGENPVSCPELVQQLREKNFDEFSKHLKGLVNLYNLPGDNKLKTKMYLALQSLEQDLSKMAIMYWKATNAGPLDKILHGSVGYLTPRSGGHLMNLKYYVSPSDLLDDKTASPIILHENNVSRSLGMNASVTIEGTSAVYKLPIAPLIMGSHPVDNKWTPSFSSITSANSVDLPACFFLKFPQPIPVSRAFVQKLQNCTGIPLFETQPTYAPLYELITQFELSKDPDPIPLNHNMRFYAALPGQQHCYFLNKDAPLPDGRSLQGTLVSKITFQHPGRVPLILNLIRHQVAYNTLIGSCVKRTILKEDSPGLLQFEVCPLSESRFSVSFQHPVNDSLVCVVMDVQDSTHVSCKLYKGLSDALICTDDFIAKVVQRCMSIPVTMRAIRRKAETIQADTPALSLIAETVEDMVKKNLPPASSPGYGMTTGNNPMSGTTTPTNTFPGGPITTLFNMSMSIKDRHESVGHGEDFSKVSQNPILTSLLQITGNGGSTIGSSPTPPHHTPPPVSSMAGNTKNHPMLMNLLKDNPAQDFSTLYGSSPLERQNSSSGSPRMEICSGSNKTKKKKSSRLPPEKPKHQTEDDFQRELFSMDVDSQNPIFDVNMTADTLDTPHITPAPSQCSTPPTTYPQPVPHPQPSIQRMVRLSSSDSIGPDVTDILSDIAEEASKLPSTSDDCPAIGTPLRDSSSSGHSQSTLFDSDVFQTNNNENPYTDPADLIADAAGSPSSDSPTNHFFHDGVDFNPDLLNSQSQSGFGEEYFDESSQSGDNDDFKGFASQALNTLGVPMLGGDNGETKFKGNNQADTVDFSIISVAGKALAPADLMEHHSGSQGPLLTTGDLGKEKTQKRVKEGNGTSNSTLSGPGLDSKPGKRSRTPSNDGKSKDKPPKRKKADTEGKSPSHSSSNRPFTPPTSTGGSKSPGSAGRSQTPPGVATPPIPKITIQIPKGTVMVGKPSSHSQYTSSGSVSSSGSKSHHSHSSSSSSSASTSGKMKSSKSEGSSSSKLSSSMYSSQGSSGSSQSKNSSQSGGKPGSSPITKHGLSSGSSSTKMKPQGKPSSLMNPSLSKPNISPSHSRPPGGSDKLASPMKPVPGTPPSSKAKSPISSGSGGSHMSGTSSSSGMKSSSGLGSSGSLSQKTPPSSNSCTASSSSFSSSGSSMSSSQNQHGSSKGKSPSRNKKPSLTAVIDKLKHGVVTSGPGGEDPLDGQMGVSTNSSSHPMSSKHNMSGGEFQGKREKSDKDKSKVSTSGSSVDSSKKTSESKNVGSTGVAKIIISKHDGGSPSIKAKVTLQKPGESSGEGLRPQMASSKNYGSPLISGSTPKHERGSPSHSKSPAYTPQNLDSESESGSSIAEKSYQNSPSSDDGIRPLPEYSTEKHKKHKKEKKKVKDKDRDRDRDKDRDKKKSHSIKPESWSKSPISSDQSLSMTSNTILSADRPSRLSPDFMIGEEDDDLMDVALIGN
UniProt P10620: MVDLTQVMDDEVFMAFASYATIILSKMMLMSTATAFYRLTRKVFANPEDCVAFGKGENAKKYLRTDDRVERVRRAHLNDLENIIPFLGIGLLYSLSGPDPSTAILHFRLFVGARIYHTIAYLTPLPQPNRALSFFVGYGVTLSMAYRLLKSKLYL
UniProt Q7L2J0: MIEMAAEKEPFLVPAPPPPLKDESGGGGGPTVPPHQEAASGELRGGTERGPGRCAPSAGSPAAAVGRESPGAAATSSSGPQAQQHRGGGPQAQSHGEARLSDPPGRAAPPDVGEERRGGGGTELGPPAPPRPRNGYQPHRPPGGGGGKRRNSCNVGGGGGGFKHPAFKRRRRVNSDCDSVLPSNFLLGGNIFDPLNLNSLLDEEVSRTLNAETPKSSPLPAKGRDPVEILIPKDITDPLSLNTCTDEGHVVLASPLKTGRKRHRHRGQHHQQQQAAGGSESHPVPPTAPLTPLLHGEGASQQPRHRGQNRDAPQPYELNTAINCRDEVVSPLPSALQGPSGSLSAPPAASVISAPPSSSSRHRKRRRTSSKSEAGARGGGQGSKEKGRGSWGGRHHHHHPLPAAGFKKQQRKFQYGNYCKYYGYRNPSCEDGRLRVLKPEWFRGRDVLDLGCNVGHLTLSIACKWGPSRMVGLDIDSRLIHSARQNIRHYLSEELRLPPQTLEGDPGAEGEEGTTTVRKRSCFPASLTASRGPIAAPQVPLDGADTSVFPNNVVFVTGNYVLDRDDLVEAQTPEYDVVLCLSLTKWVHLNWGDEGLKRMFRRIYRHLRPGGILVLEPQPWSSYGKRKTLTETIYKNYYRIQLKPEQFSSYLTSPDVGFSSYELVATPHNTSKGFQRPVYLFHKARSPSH

Tests used:
Test in all cases: log2 fold change, soluble protein after heating vs DMSO (PISA); higher = thermal stabilisation; K562 cells, 10 uM, 30 min; active = over 0.2 and 3.5 SD of the protein, either way, in both replicates (recomputed)
erlotinib = compound: C#Cc1cccc(Nc2ncnc3cc(OCCOC)c(OCCOC)cc23)c1 [erlotinib]
Outline: (§1)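 K562 cells at 2×10^6 cells/mL were treated for 30 min with 10 μM compound, and aliquots were heated for 3 min over 48°C-58°C before pooling. Extraction used PBS with 0.5% NP-40 at 4°C, and soluble protein was the supernatant after 21,000xg for 90 min, measured by TMTpro 16plex LC-MS/MS with channel sums equalised. Thermal stability values, relative to control samples and from duplicates, are log2 fold changes.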

[1] = compound: C/C(=N\NC(=O)C1=CC(=CC=C1)S(=O)(=O)N2CCOCC2)/C3=C(C=CC(=C3)Cl)O
Outline: as §1

[2] = compound: C1=CC(=C(C=C1Cl)C2=NC3=NC=CN=C3C(=N2)NC4=CC=NC=C4)F
Outline: as §1

[3] = compound: C1=CC(=CC=C1C2=NC3=C(N2)C=C(C=C3)C(=O)N)OC4=CC=C(C=C4)Cl
Outline: as §1

[4] = compound: C1=CC2=C(C=CC(=C2)/C=C\3/C(=O)NC(=NCC4=CC=CS4)S3)N=C1
Outline: as §1

[5] = compound: C1=CC2=NC=CN=C2C=C1/C=C/3\C(=O)NC(=O)S3
Outline: as §1

[6] = compound: C1=CC=C(C=C1)C2=NC(=C(N2)C3=CC=NC=C3)C4=CC(=C(C=C4)Cl)O
Outline: as §1

[7] = compound: C1=CC=C2C(=C1)C3=NNC4=CC=CC(=C43)C2=O
Outline: as §1

[8] = compound: C1CCN(C1)C(=O)NC2=CC=CC(=C2)NC3=NC=C(C(=N3)NCCC4=CN=CN4)Br
Outline: as §1

[9] = compound: C1CN(CCC1(CC2=CC=C(C=C2)Cl)N)C3=NC=NC4=C3C=CN4
Outline: as §1

IRAK-1-4 Inhibitor I = compound: C1COCCN1CCN2C3=CC=CC=C3N=C2NC(=O)C4=CC(=CC=C4)[N+](=O)[O-] [IRAK-1-4 Inhibitor I]
Outline: as §1

ibrutinib = compound: C=CC(=O)N1CCC[C@@H](n2nc(-c3ccc(Oc4ccccc4)cc3)c3c(N)ncnc32)C1 [ibrutinib]
Outline: as §1

[10] = compound: CC(=O)c1cnc2ccc(-c3cc(Cl)c(O)c(Cl)c3)nc2c1N[C@H]1CC[C@H](CN(C)C)CC1
Outline: as §1

ralimetinib = compound: CC(C)(C)Cn1c(N)nc2ccc(-c3[nH]c(C(C)(C)C)nc3-c3ccc(F)cc3)nc21 [ralimetinib]
Outline: as §1

[11] = compound: CC(C)(O)CC(=O)NCCn1ccc2ncnc(Nc3ccc(Oc4cccc(C(F)(F)F)c4)c(Cl)c3)c21
Outline: as §1

[12] = compound: CC(C)C1=C2N=C(C=C(N2N=C1)NCC3=CC=CC=C3)NCCCCCCN
Outline: as §1

[13] = compound: CC(C)C[C@@H](C=O)NC(=O)[C@H](CC(C)C)NC(=O)[C@H](CC(C)C)NC(=O)OCc1ccccc1
Outline: as §1

pinometostat = compound: CC(C)N(C[C@H]1O[C@@H](n2cnc3c(N)ncnc32)[C@H](O)[C@@H]1O)[C@H]1C[C@@H](CCc2nc3cc(C(C)(C)C)ccc3[nH]2)C1 [pinometostat]
Outline: as §1

[14] = compound: CC1=C(C(CC(=O)N1)C2=CC=C(C=C2)C(F)(F)F)C(=O)NC3=C(C=C4C(=C3)C=NN4)F
Outline: as §1

[15] = compound: CC1=C(C2=C(C=C1)C(=O)C3=CC=CC=C3N2CCCN)C
Outline: as §1

Measured: log2 fold change

MIA3 (UniProt Q5JRA6)
inactive: erlotinib 0.008 | [1] 0.004 | [2] 0.014 | [3] -0.021 | [4] -0.029 | [5] 0.005 | [6] -0.043 | [7] -0.083 | [8] 0.014 | [9] -0.006 | IRAK-1-4 Inhibitor I -0.008 | ibrutinib -0.043 | [10] -0.043 | ralimetinib 0 | [11] 0.027 | [12] -0.019 | [13] 0.046 | pinometostat 0.039 | [14] 0.045 | [15] -0.031

MED23 (UniProt Q9ULK4)
inactive: erlotinib -0.01 | [1] 0.045 | [2] 0.03 | [3] 0.002 | [4] 0.11 | [5] 0.031 | [6] -0.032 | [7] 0.061 | [8] -0.049 | [9] 0.02 | IRAK-1-4 Inhibitor I -0.146 | ibrutinib -0.03 | [10] -0.127 | ralimetinib -0.002 | [11] -0.162 | [12] -0.168 | [13] 0.092 | pinometostat 0.061 | [14] -0.125 | [15] 0.086

METTL7A (UniProt Q9H8H3)
inactive: erlotinib 0.01 | [1] 0.041 | [2] 0.054 | [3] -0.003 | [4] 0.036 | [5] -0.029 | [6] 0.045 | [7] -0.009 | [8] -0.039 | [9] 0.047 | IRAK-1-4 Inhibitor I 0.063 | ibrutinib 0.048 | [10] -0.014 | ralimetinib 0.001 | [11] 0.059 | [12] 0.118 | [13] -0.044 | pinometostat -0.022 | [14] -0.01 | [15] 0.077

MEA1 (UniProt Q16626)
inactive: erlotinib -0.094 | [1] -0.031 | [2] 0.026 | [3] 0.064 | [4] 0.1 | [5] -0.08 | [6] -0.034 | [7] -0.013 | [8] -0.017 | [9] -0.004 | IRAK-1-4 Inhibitor I 0.03 | ibrutinib 0.107 | [10] -0.274 | ralimetinib -0.113 | [11] 0.029 | [12] 0.045 | [13] 0.108 | pinometostat -0.02 | [14] -0.001 | [15] -0.119

MCCC1 (UniProt Q96RQ3)
inactive: erlotinib 0.008 | [1] -0.007 | [2] 0.112 | [3] 0.116 | [4] 0.048 | [5] 0.009 | [6] 0.048 | [7] 0.016 | [8] -0.025 | [9] -0.016 | IRAK-1-4 Inhibitor I 0.038 | ibrutinib 0 | [10] -0.079 | ralimetinib -0.037 | [11] -0.128 | [12] 0.044 | [13] 0.005 | pinometostat -0.054 | [14] 0.006 | [15] 0.1

MBTPS1 (UniProt Q14703)
inactive: erlotinib -0.074 | [1] -0.05 | [2] -0.078 | [3] 0.204 | [4] 0.03 | [5] -0.005 | [6] -0.116 | [7] 0.012 | [8] -0.002 | [9] 0.022 | IRAK-1-4 Inhibitor I -0.05 | ibrutinib -0.262 | [10] -0.069 | ralimetinib 0.095 | [11] 0.012 | [12] 0.001 | [13] 0.13 | pinometostat 0.043 | [14] -0.037 | [15] 0.018

MEF2C isoform 5 (UniProt Q06413)
inactive: erlotinib -0.005 | [1] -0.05 | [2] 0.032 | [3] -0.041 | [4] 0.079 | [5] 0.028 | [6] -0.045 | [7] -0.027 | [8] 0.037 | [9] 0.027 | IRAK-1-4 Inhibitor I 0.029 | ibrutinib -0.109 | [10] 0.029 | ralimetinib -0.018 | [11] 0.031 | [12] 0.002 | [13] 0.081 | pinometostat 0.023 | [14] -0.127 | [15] -0.17

METTL6 (UniProt Q8TCB7)
inactive: erlotinib 0.02 | [1] -0.038 | [2] -0.413 | [3] -0.034 | [4] 0.088 | [5] 0.131 | [7] -0.09 | [8] 0.102 | [9] 0.053 | IRAK-1-4 Inhibitor I 0.048 | ibrutinib -0.131 | [10] 0.004 | [11] -0.097 | [12] -0.079 | pinometostat -0.08 | [15] 0.113

MDK (UniProt P21741)
inactive: erlotinib -0.58 | [1] -0.044 | [3] 0.029 | [4] -0.079 | [5] 0.081 | [7] -0.302 | [8] 0.038 | [9] -0.004 | ibrutinib 0.012 | [10] 0.212 | [12] 0.242 | [14] -0.067 | [15] -0.481

MIA2 (UniProt Q96PC5)
inactive: erlotinib 0.01 | [1] 0.044 | [2] 0.04 | [3] -0.044 | [4] -0.033 | [5] 0.035 | [6] 0.021 | [7] -0.092 | [8] 0.003 | [9] 0.041 | IRAK-1-4 Inhibitor I -0.036 | ibrutinib 0.008 | [10] -0.059 | ralimetinib -0.003 | [11] 0.03 | [12] -0.155 | [13] 0.035 | pinometostat 0.043 | [15] 0.032

MASTL (UniProt Q96GX5)
active: [11] -0.393
inactive: erlotinib 0.008 | [1] 0.045 | [2] 0.026 | [3] -0.015 | [4] -0.076 | [5] 0.124 | [6] -0.087 | [7] 0.007 | IRAK-1-4 Inhibitor I -0.001 | ibrutinib -0.008 | [10] -0.061 | ralimetinib 0.001 | [12] -0.028 | [13] 0.138 | pinometostat 0.07

MFSD5 isoform 2 (UniProt Q6N075)
inactive: erlotinib 0.147 | [1] 0.057 | [2] 0.041 | [3] 0.115 | [4] -0.061 | [5] 0.038 | [6] -0.144 | [7] 0.109 | [8] 0.014 | [9] 0.034 | IRAK-1-4 Inhibitor I -0.068 | ibrutinib -0.016 | [10] -0.007 | ralimetinib 0.019 | [11] -0.017 | [12] -0.053 | [13] 0.003 | pinometostat 0.049 | [15] -0.061

MCCC2 (UniProt Q9HCC0)
inactive: erlotinib 0.019 | [1] 0.123 | [2] 0.03 | [3] 0.004 | [4] -0.04 | [5] 0.011 | [6] 0.047 | [7] 0.004 | [8] 0.004 | [9] 0.035 | IRAK-1-4 Inhibitor I 0.046 | ibrutinib 0.019 | [10] 0.047 | ralimetinib -0.015 | [11] 0.027 | [12] 0.024 | [13] -0.04 | pinometostat -0.05 | [15] 0.003

MFF (UniProt Q9GZY8)
inactive: erlotinib 0.02 | [1] -0.022 | [2] 0.011 | [3] -0.024 | [4] 0.107 | [5] 0.057 | [6] -0.008 | [7] -0.062 | [8] 0.007 | [9] 0.032 | IRAK-1-4 Inhibitor I 0.038 | ibrutinib 0.025 | [10] -0.228 | ralimetinib 0.018 | [11] 0.002 | [12] -0.074 | [13] 0.048 | pinometostat -0.012 | [15] -0.042

MED1 (UniProt Q15648)
active: [10] -0.28
inactive: erlotinib -0.022 | [1] -0.011 | [2] -0.118 | [3] -0.001 | [4] 0.04 | [5] 0.043 | [6] -0.03 | [7] -0.043 | [8] 0.016 | [9] -0.025 | IRAK-1-4 Inhibitor I -0.049 | ibrutinib 0.002 | ralimetinib 0.032 | [11] -0.008 | [12] -0.106 | [13] 0.033 | pinometostat 0.189 | [15] 0.027

MGST1 (UniProt P10620)
inactive: erlotinib -0.032 | [1] -0.037 | [2] 0.063 | [3] 0.021 | [4] 0.02 | [5] 0.038 | [6] 0.024 | [7] -0.057 | [8] -0.004 | [9] -0.049 | IRAK-1-4 Inhibitor I 0.002 | ibrutinib 0.033 | [10] 0.064 | ralimetinib -0.01 | [11] -0.001 | [12] -0.004 | [13] 0.011 | pinometostat -0.074 | [15] 0.054

2 consecutive entries from above, for reference:
MED1 (UniProt Q15648)
active: [10] -0.28
inactive: erlotinib -0.022 | [1] -0.011 | [2] -0.118 | [3] -0.001 | [4] 0.04 | [5] 0.043 | [6] -0.03 | [7] -0.043 | [8] 0.016 | [9] -0.025 | IRAK-1-4 Inhibitor I -0.049 | ibrutinib 0.002 | ralimetinib 0.032 | [11] -0.008 | [12] -0.106 | [13] 0.033 | pinometostat 0.189 | [15] 0.027

MGST1 (UniProt P10620)
inactive: erlotinib -0.032 | [1] -0.037 | [2] 0.063 | [3] 0.021 | [4] 0.02 | [5] 0.038 | [6] 0.024 | [7] -0.057 | [8] -0.004 | [9] -0.049 | IRAK-1-4 Inhibitor I 0.002 | ibrutinib 0.033 | [10] 0.064 | ralimetinib -0.01 | [11] -0.001 | [12] -0.004 | [13] 0.011 | pinometostat -0.074 | [15] 0.054

The results go on:

MEPCE (UniProt Q7L2J0)
inactive: erlotinib 0.063 | [1] 0.064 | [2] -0.022 | [3] -0.002 | [4] 0.039 | [5] -0.01 | [6] 0.103 | [7] 0.024 | [8] -0.049 | [9] -0.047 | IRAK-1-4 Inhibitor I 0.088 | ibrutinib 0.023 | [10] 0.166 | ralimetinib 0.108 | [11] 0.026 | [12] -0.16 | [13] 0 | pinometostat 0.098
active: [15] -0.31
